Assay results from article PMC10688980.
No constants are given. Whether binding was seen depends on the method and setting. Binding seen in cells or lysates may run through a third protein. These calls come from enrichment with a bait or labelling near it, and not all partners need be listed.

Biological target: TAP-tagged Wdr70 of S. pombe (S. pombe)
Experiment: affinity purification with mass spectrometry; TAP-tagged spWdr70 from S. pombe with Ddb1 deleted; soluble extract bound to rabbit IgG Dynabeads, TEV cleavage, gradient SDS-PAGE, gel bands identified by MALDI-TOF

binding: binds
B1: Pcu4 (Cullin4 homolog) (protein, UniProt O14122 1-734)
chain: MPPEAKRIVVKGFDPRKSRQRQETYYVTMIDRLNMALQVVMAGLGLKTGYQELYSGVENLTRADQASRCFNILQHHMSSGIQLLKDSAESFIQLEGTETDTNACTVVVGCWNKWLERVEIVQNIFYYMDKTFLSHHPDYPTIEELSLSLFREKLMAVKNIQIPFLNSLLQSFENLHSSKSTDHAYLQDAMLMLHRTEMYSSVFVPMYLVMLSRFYDTESSQKIQELPLEEYLEYAMSSLEREDAYVEKFDIVRDKKSIRETVQRCLITSHLDTLTKGISQFIEKRDAHSCKLLYALLQFNHETEYLIQPWSDCLVDVGFKLVNDESKDDTLVQELLSFHKFLQVVVDESFLHDETLSYAMRKAFETFINGAKGSQREAPARLIAKYIDYLLRVGEQASGGKPLKEVFSEILDLFRYIASKDIFEAYYKLDIAKRLLLNKSASAQNELMLLDMLKKTCGSQFTHSLEGMFRDVNISKEFTSSFRHSKAAHNLHRDLYVNVLSQAYWPSYPESHIRLPDDMQQDLDCFEKFYLSKQVGKKISWYASLGHCIVKARFPLGNKELSISLFQACVLLQFNNCLGGEGISYQDLKKSTELSDIDLTRTLQSLSCARIRPLVMVPKSKKPSPDTMFYVNEKFTDKLYRVKINQIYLKEERQENSDVQEQVVRDRQFELQASIVRVMKQKEKMKHDDLVQYVINNVKDRGIPLVSDVKTAIEKLLEKEYLEREDNDIYTYVT
